Experimental data: PubChem BioAssay AID493014 (National Center for Advancing Translational Sciences (NCATS), 2011)
The other results are listed elsewhere or left out. The main result of the screen is listed elsewhere. These columns were measured beside it and carry no call. The list favours compounds with an active or inconclusive main result. Words in brackets tell the shape of the fitted curve; partial curves, single points and poor fits give uncertain potencies.

Assay: qHTS Assay to Find Inhibitors of Chronic Active B-Cell Receptor Signaling
Details: ABC-DLBCL IkBa-CBG/CBR reporter, luminescence ratio (green luciferase fused to IkBa over red control in TMD8 lymphoma cells), 4 h
Outline: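 Compounds up to 46 uM were incubated four hours with TMD8 cells whose green CBG68 luciferase is fused to IkappaBalpha; red CBR luminescence normalised the signal, and concentration-effect curves were fitted to fusion, red and ratio data.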

[1] = measured here: CBR red luminescence, cell number
[2] = measured here: IkBa-CBG green luminescence

Compound | AC50 [1] | AC50 [2]
O=C(NCCC1CCCCN1S(=O)(=O)c1ccc(F)cc1)C(=O)Nc1ccccc1 (stereo not given) | 1.64 µM [falling, full curve, poor fit] | 
Cc1cc(C)c2c(n1)sc1c(=O)n(CC(=O)c3ccccc3)cnc12 | 25.1 µM [rising, single point] | 
O=C(Nc1nc2ccc(Cl)cc2s1)C1CCCO1 (stereo not given) | 11.6 µM [falling, partial curve] | 
CN1CCN(/N=C/c2ccc(OCc3ccccc3)cc2)CC1 | 14.1 µM [rising, single point] | 
C#CCn1c(=NC(=O)CSC(C)=O)sc2cc(F)ccc21 | 5.62 µM [rising, full curve, poor fit] | 7.08 µM [falling, partial curve, poor fit]
COc1ccccc1NC(=O)C1(C)Cc2ccccc2C(=O)O1 (stereo not given) | 29.1 µM [falling, single point] | 
CC1CN(C(=O)Nc2ccc3snnc3c2)c2ccccc21 (stereo not given) | 1.84 µM [rising, partial curve, poor fit] | 
CC(=O)O/N=C(/c1nonc1N)N1CCN(c2ccc([N+](=O)[O-])cc2Cl)CC1 | 20.6 µM [rising, partial curve, poor fit] | 
COc1cc2nc(NC(=O)c3ccc(S(=O)(=O)N4CCCC4)cc3)sc2cc1OC | 7.94 µM [rising, partial curve, poor fit] | 
O=C(COCc1cc(-c2ccc3c(c2)OCO3)on1)N1CCN(c2cccc(C(F)(F)F)c2)CC1 | 17.8 µM [falling, single point] | 
CC(C)NC(=O)CSc1nnc(COc2ccccc2Cl)o1 | 0.00651 µM [rising, full curve, poor fit] | 
CC(OC(=O)c1cccc(-n2cnnn2)c1)C(=O)c1ccccc1 (stereo not given) | 13 µM [rising, partial curve] | 
C/C(=N\NC(=O)c1ccoc1C)c1ccccc1O | 22.4 µM [falling, single point] | 
Cc1ccc(C)n1-c1ccccc1N | 18.4 µM [falling, partial curve, poor fit] | 
CC(C)N1CCC(N2CCN(Cc3ccc(Oc4ncccn4)cc3)CC2CCO)CC1 (stereo not given) | 35.5 µM [rising, single point] | 
O=C(Nc1ccc2c(c1)OCO2)c1cnc(Cl)c(Cl)c1 | 7.31 µM [falling, partial curve] | 5.8 µM [rising, partial curve, poor fit]
Cc1cc(C(=O)NN=C2CCCCCC2)c(C)o1 | 7.94 µM [falling, partial curve] | 
COCC1CCCN(C(=O)c2ccc3oc(C(C)C)nc3c2)C1 (stereo not given) | 25.1 µM [falling, single point] | 
O=C(N/N=C/c1ccc([N+](=O)[O-])cc1)c1c[nH]c2ccccc12 | 22.4 µM [falling, partial curve, poor fit] | 
CCC(C)c1ccc(NC(=O)CSc2nncn2N)cc1 (stereo not given) | 6.51 µM [rising, single point] | 
Cc1nc2cc(NC(=O)c3ccc(Cl)cc3)ccc2n1C | 7.94 µM [falling, partial curve] | 

An excerpt from above in order of molecular weight, ascending:
Compound | AC50 [1] | AC50 [2]
Cc1nc2cc(NC(=O)c3ccc(Cl)cc3)ccc2n1C | 7.94 µM [falling, partial curve] | 
CCC(C)c1ccc(NC(=O)CSc2nncn2N)cc1 (stereo not given) | 6.51 µM [rising, single point] | 
CC(OC(=O)c1cccc(-n2cnnn2)c1)C(=O)c1ccccc1 (stereo not given) | 13 µM [rising, partial curve] | 

More records:

Compound | AC50 [1] | AC50 [2]
COc1ccccc1CN(C(=O)Cc1cccs1)C(C(=O)NC1CCCC1)c1ccncc1 (stereo not given) | 15.8 µM [falling, single point] | 
COC(=O)c1ccc(CSc2nc3sc(C)c(C)c3c(=O)[nH]2)cc1 | 3.16 µM [falling, partial curve, poor fit] | 
CCCCCCCn1c(=N)n(CC(=O)c2ccco2)c2ccccc21 | 0.731 µM [falling, full curve, poor fit] | 
CC(C)(C)OC(=O)C[C@H]1C/C=C\C[C@H](CC(=O)N[C@H](CO)Cc2ccccc2)C(=O)N[C@H](C(C)(C)C)COC1=O | 13 µM [rising, partial curve, poor fit] | 
COC(CNC(=O)c1ccc(CS(=O)(=O)c2ccccc2)o1)OC | 0.631 µM [rising, partial curve, poor fit] | 
Cc1ccc(N2C(=O)CC(Sc3ncn[nH]3)C2=O)cc1C (stereo not given) | 0.316 µM [falling, full curve, poor fit] | 
Cc1ccc2cc(CN(CC3CCCO3)C(=O)c3cccs3)c(=O)[nH]c2c1 (stereo not given) | 11.2 µM [rising, partial curve, poor fit] | 
COc1cc(/C=N/Nc2ccc(Cl)c(C(=O)O)c2)ccc1OCC(=O)N1C(C)CCCC1C (stereo not given) | 11.2 µM [falling, single point] | 
CCOc1ccc(C(C)=O)cc1COC(=O)CNC(=O)c1cccs1 | 18.4 µM [rising, single point] | 
COC(=O)/C(=C\Nc1ccc(Oc2ccc(F)cc2F)nc1)NC(=O)c1ccccc1 | 35.5 µM [rising, single point] | 
C#Cc1ccc([C@H]2C=C(C(=O)N3CCN(Cc4ccc5c(c4)OCO5)CC3)O[C@@H](OCC)[C@@H]2CCCO)cc1 | 35.5 µM [falling, single point] | 
CC(=O)Nc1ccc(CN2CCCCCCC2)cc1 | 5.62 µM [falling, single point] | 
COc1cc([N+](=O)[O-])ccc1NC(=S)NNC(=O)c1ccc2c(c1)OCO2 | 12.6 µM [falling, single point] | 
Cc1ccc(S(=O)(=O)Oc2ccc(C(c3c(C)[nH][nH]c3=O)c3c(C)[nH][nH]c3=O)cc2)cc1 | 32.6 µM [falling, single point] | 
O=C(C1CCCN(S(=O)(=O)c2cccs2)C1)N1CCN(C2CCCCC2)CC1 (stereo not given) | 2.06 µM [rising, single point] | 
Cn1c(=O)c2c(nc(NC(Cc3ccccc3)C(=O)O)n2Cc2ccccc2)n(C)c1=O (stereo not given) | 7.08 µM [falling, partial curve] | 
C=CCSc1nnc2c(n1)OC=Nc1ccccc1-2 | 18.4 µM [falling, single point] | 
CCCCN(C)C(=O)c1nc2ccccn2c1CNC1CCC1 | 14.1 µM [rising, partial curve, poor fit] | 
CCN(CC)S(=O)(=O)c1cccc(C(=O)Nc2ccccc2C(=O)N2CCOCC2)c1 | 13 µM [rising, partial curve, poor fit] | 
O=C(N/N=C\c1c(O)ccc2ccccc12)c1ccc(O)cc1 | 11.2 µM [falling, partial curve] | 
Cc1cc(C)c(NC(=O)CNC(=O)c2ccc3ncsc3c2)c(C)c1 | 5.8 µM [falling, partial curve] | 

Compound | AC50 [1] | AC50 [2]
C#CCCOC(=O)Nc1ccccc1 | 3.16 µM [rising, single point] | 
Cc1ccc(NC(=S)N2CCN(C)CC2)c(C)c1 | 14.6 µM [rising, partial curve, poor fit] | 
c1ccc(SCCN2CCN(c3ccccc3)CC2)cc1 | 1.58 µM [rising, full curve, poor fit] | 
CCCCC1C2C(=O)N(c3ccc(C)cc3)C(=O)C2ON1c1ccccc1 (stereo not given) | 10 µM [falling, partial curve, poor fit] | 
COc1ccc(Br)cc1CNC(=O)Cc1c(C(=O)O)[nH]c2ccc(Cl)cc12 | 17.8 µM [falling, partial curve, poor fit] | 
COc1ccc(NC(=S)NCC2CCCO2)c(OC)c1 (stereo not given) | 25.9 µM [rising, single point] | 
COc1cccc(NC(=O)COc2ccc(C)cc2)c1 | 23.1 µM [falling, single point] | 
C/C=C(\C)CN1CCN(c2cc(C)ccc2C)CC1 | 35.5 µM [rising, single point] | 
CCc1ccc(C(=O)COC(=O)c2cccnc2Cl)cc1 | 35.5 µM [rising, single point] | 
Cc1cc(NC(=O)C(=O)c2cn(C)c3ccccc23)no1 | 0.631 µM [falling, full curve] | 
COc1ccc(NC(=S)Nc2cccc(Cl)c2)cc1OC | 5.01 µM [rising, partial curve, poor fit] | 
Cc1[nH]c2ccccc2c1CN1CCC(CO)(Cc2ccccc2)CC1 | 28.2 µM [falling, single point] | 
COc1ccc(CCNC(=O)CS(=O)(=O)Cc2nc(-c3ccccc3Cl)oc2C)cc1OC | 0.794 µM [rising, full curve, poor fit] | 
COc1ccc(C2/C(=C(/O)c3ccccc3)C(=O)C(=O)N2CC(C)O)c(OC)c1 (stereo not given) | 17.8 µM [rising, single point] | 
COc1ccc(N(CC(=O)N/N=C(\C)c2ccc(OC)c(OC)c2)S(=O)(=O)c2ccccc2)cc1 | 28.2 µM [rising, partial curve, poor fit] | 
COC(=O)c1cn(-c2ccccc2)c(C)c1C(=O)OC | 9.2 µM [rising, partial curve, poor fit] | 
CCC(C)N1CCC2(CC1)N=c1c(c3c4c5c(C)c(O)c3c(O)c1=NC(=O)C(C)=CC=C[C@H](C)[C@H](O)[C@@H](C)[C@@H](O)[C@@H](C)[C@H](OC(C)=O)[C@H](C)[C@@H](OC)C=CO[C@@](C)(O5)C4=O)N2 (stereo not given in full) | 6.51 µM [rising, partial curve, poor fit] | 
CC1=C(C(=O)OCc2ccccc2)C(c2ccc([N+](=O)[O-])cc2)NC(=O)N1C (stereo not given) | 35.5 µM [falling, single point] | 
COc1ccc(N2C(=O)C(CC(=O)Nc3ccc(F)cc3)N(CCc3ccc(OC)c(OC)c3)C2=O)cc1 (stereo not given) | 3.55 µM [rising, partial curve, poor fit] | 
CCc1noc(C)c1C(=O)Nc1nc2c(C)cccc2s1 | 2.91 µM [falling, partial curve] | 20.6 µM [rising, partial curve, poor fit]
